Reference: US12180146B2, “Antihypertensive polyol compound and derivative thereof” (TAO PHARMACEUTICAL (SUZHOU) CO., LTD, priority 2020, dated 2024)
At least one structure is not confirmed: it was looked up by name or label, or the drawing left a doubt.

What was measured:
[1] = tested on: monocrotaline-induced pulmonary hypertension model rats (MCT-PAH); test: Monocrotaline-induced pulmonary hypertension model rats, aerosol inhalation treatment; format: in vivo, SD rats; settings: 10 mg/kg and 30 mg/kg
Method: A pulmonary hypertension animal model of SD rats was established by subcutaneous injection of monocrotaline (MCT). The compound 1 was administered by aerosol inhalation for treatment. The pulmonary artery hemodynamics and right heart hypertrophy index RVHI of rats were tested to determine whether compound 1 administered by aerosol inhalation has effects of improving monocrotaline-induced pulmonary hypertension.
SD rats (purchased from Shanghai Xipuer-Bikai Experimental Animal Co., Ltd.), male, weighing 180-200 g, were bred in an artificially controlled animal room with each 12 hours of light and darkness at a temperature of 20-25° C. and relative humidity of 50-60%, and allowed ad libitum to food and water. The rats were randomly divided into groups according to the experimental requirements, and kept separately in cages, with 3 to 4 rats per cage. All relevant operations of animal experiments are in compliance with the provisions of “Guidelines for the Management and Use of Laboratory Animals” of China.
In the second experiment, the rats were divided into 5 groups, namely the control group, model group, positive control Tyvaso (1.62 μg/kg) group, compound 1 (10 mg/kg) group and compound 1 (30 mg/kg) group. […] After the administration, the pulmonary vascular hemodynamics and RVHI were determined in the same way as the experiment method in Example 1.

[2] = tested on: monocrotaline-induced pulmonary hypertension model rats (MCT-PAH); test: Monocrotaline-induced pulmonary hypertension model rats, oral (gavage) treatment for 21 days; format: in vivo, SD rats; settings: 100 mg/kg
Source text: Monocrotaline (MCT) was subcutaneously injected to establish an animal model of pulmonary hypertension in SD rats. At the same time, compound 1 was given by gavage for treatment. The pulmonary artery hemodynamics and right heart hypertrophy index RVHI of the rates were detected to determine whether the oral administration of compound 1 has effects of improving Monocrotaline induces pulmonary hypertension.
SD rats (purchased from Shanghai Xipuer-Bikai Experimental Animal Co., Ltd.), male, weighing 180-200 g, were bred in an artificially controlled animal room with each 12 hours of light and darkness at a temperature of 20-25° C. and relative humidity of 50-60%, and allowed ad libitum to food and water. The rats were randomly divided into groups according to the experimental requirements, and kept separately in cages, with 3 to 4 rats per cage. All relevant operations of animal experiments are in compliance with the provisions of “Guidelines for the Management and Use of Laboratory Animals” of China. […]
After the administration, the pulmonary vascular hemodynamics and RVHI was determined according to the same experiment method as that in Example 1.

Structure (SMILES): CCc1cccc(C(O)CO)c1 (stereo not shown) [Compound 1, 1-(3-ethylphenyl)-1,2-ethylene glycol]
- RVSP compared with the untreated model group [1]: significantly lower
- pathological changes of pulmonary arteriole hypertrophy in lung tissues compared with the model group [1]: significantly reduced
- RVSP and mRVP compared with the untreated model group [2]: significantly lower
- pathological changes of arteriolar hypertrophy in the lung tissue compared with the model group [2]: significantly reduced
